# Measured values taken from PubChem BioAssay AID493014 (National Center for Advancing Translational Sciences (NCATS), 2011).
# Some of the results follow. Shown are side measurements of this screen, not its main read-out; they come without a call. Most of these compounds were active or inconclusive in the main read-out, so they are no random draw. Potencies come from curve fits of mixed quality, noted in brackets.
# Test: qHTS Assay to Find Inhibitors of Chronic Active B-Cell Receptor Signaling
# Details: ABC-DLBCL IkBa-CBG/CBR reporter, luminescence ratio (green luciferase fused to IkBa over red control in TMD8 lymphoma cells), 4 h
# Procedure, shortened: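 TMD8 human ABC-DLBCL cells with doxycycline-inducible IκBα–green luciferase fusion and unfused red luciferase, in 0.5% FBS medium; compounds up to 46 uM, 4 h at 37C. Green/red luminescence ratio, filter-overlap corrected, fitted to concentration-response curves.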
# [1] = measured here: CBR red luminescence, cell number
# [2] = measured here: IkBa-CBG green luminescence
SMILES,AC50 [1],AC50 [2]
C/C(=N\NC(=O)c1ccccc1O)c1ccc(Br)s1,"1.64 µM [falling, full curve]",–
CCn1nc(C(=O)Nc2nc3ccccc3[nH]2)c2ccccc2c1=O,"7.31 µM [falling, partial curve]",–
CCCCCCC1CC(CC(=O)Nc2ccc([N+](=O)[O-])cc2)C(=O)O1 (centres undefined),"32.6 µM [falling, single point]",–
Cc1ccc2c(c1)NC(=O)C(CC(=O)NCCCN1CCCCC1)O2 (centres undefined),"29.1 µM [falling, single point]",–
COc1cc(CNCc2ccccc2)c(Br)cc1OC1CCCC1,"35.5 µM [falling, single point]",–
O=c1[nH]c2c(c3c1CCCC3)CCCC2,"23.1 µM [rising, single point]",–
CC1(C)Cc2c(c(N3CCCC3)nc3sc(C(=O)Nc4ccccc4)c(N)c23)CO1,"14.1 µM [falling, partial curve, poor fit]",–
COCCNc1ccc([N+](=O)[O-])cc1C(=O)Nc1cccc(C)n1,"35.5 µM [falling, single point]",–
COc1ccccc1NC(=O)c1ccc(-c2ccccc2F)o1,"9.2 µM [falling, partial curve, poor fit]",–
O=C(COC(=O)c1ccc(Cl)c([N+](=O)[O-])c1)Nc1ccccc1OC(F)F,"7.31 µM [falling, partial curve, poor fit]",–
C=CCOc1c(Cl)cc(CNc2ccc(C)c(Cl)c2)cc1OC,"2.91 µM [rising, full curve]","2.91 µM [falling, full curve]"
COc1ccc(C=O)cc1COc1ccc(C)cc1[N+](=O)[O-],"22.4 µM [rising, single point]","20 µM [falling, single point]"
COc1ccccc1NC(=O)c1cnc(SCC(=O)NCC2CCCO2)n(C)c1=O (centres undefined),"4.61 µM [falling, partial curve]",–
COc1ccccc1C(=O)NNC1=NS(=O)(=O)c2ccccc21,"11.2 µM [falling, partial curve]",–
CCN(CC(=O)NCc1cccs1)C(=O)CCOc1ccccc1C,"17.8 µM [rising, single point]",–
O=C(CC(Sc1ccccc1)c1cccs1)c1ccco1 (centres undefined),"22.4 µM [falling, single point]",–
O=C(NNc1ccc([N+](=O)[O-])cc1)c1ccccc1F,"15.8 µM [falling, single point]",–
C=CCOc1ccccc1CNc1ccccc1C,"18.4 µM [rising, partial curve, poor fit]",–
CCCN(CC(=O)Nc1ccccc1C)C(=O)COC(=O)CSc1ccc([N+](=O)[O-])cc1,"16.4 µM [falling, single point]",–
CCc1ccc(/C=C2\SC(=S)N(CCC(=O)N3CCN(C)CC3)C2=O)cc1,"12.6 µM [falling, partial curve, poor fit]",–
CS(=O)(=O)N(Cc1ccc(C(=O)NN=C2CCCC2)cc1)c1ccccc1,"20.6 µM [falling, partial curve]",–

SMILES,AC50 [1],AC50 [2]
N=C1C(c2nc(-c3ccc(Cl)cc3)cs2)=C(O)CN1NC(=O)c1ccc(O)cc1,"0.355 µM [rising, full curve, poor fit]",–
COc1cc(C(=O)NCc2ccc(-n3cccc3)cc2)cc(OC)c1OC,"10 µM [rising, partial curve, poor fit]",–
COc1ccc2nc(C)c(C(=O)NN)cc2c1,"0.0058 µM [falling, full curve, poor fit]",–
CC1CCCN(CCCNC(=O)c2ccc3c(c2)N(Cc2ccccc2F)C(=O)c2ccccc2S3(=O)=O)C1 (centres undefined),"35.5 µM [falling, single point]",–
Cc1ccc(OCCC(=O)Nc2ccc(F)c(F)c2)cc1,"3.66 µM [rising, partial curve]",–
O=C(/C=C/c1ccccc1)c1ccc2c(c1)OCO2,"35.5 µM [falling, single point]",–
COc1ccc(CCNC(=O)C(=O)NCC2OCCN2S(=O)(=O)c2ccc(OC)c(C)c2)cc1 (centres undefined),"1.58 µM [rising, partial curve, poor fit]",–
Oc1c(CN2CCCCC2)cc(Br)c2cccnc12,–,"6.31 µM [falling, partial curve, poor fit]"
Nc1n[nH]c(N)c1N=Nc1ccc(F)cc1,"20 µM [falling, partial curve]",–
O=C(CCS(=O)(=O)c1ccc(F)cc1)N1CCN(c2ccccc2)CC1,"25.9 µM [falling, single point]",–
COc1cc(/C=N/N=C/c2cc(OC)c(O)c(OC)c2)cc(OC)c1O,"6.51 µM [rising, full curve]",–
CCS(=O)(=O)c1nnnn1-c1ccccc1S(C)(=O)=O,"11.2 µM [falling, partial curve]",–
CCN(CC)S(=O)(=O)c1ccc(N2CCOCC2)c(NC(=O)C2CCCO2)c1 (centres undefined),"35.5 µM [rising, single point]",–
CCCNC(=O)c1c(N)n(-c2ccc3c(c2)OCO3)c2nc3ccccc3nc12,"14.1 µM [falling, single point]",–
CC(Sc1nc2ccccc2c(=O)n1C)C(=O)Nc1ccc2c(c1)OCCO2 (centres undefined),"0.366 µM [falling, full curve]",–
COc1ccc(Nc2oc(-c3ccc(Cl)cc3)nc2C#N)cc1,"22.4 µM [falling, single point]",–
O=c1oc(-c2cccs2)nc2scc(-c3cccs3)c12,"0.231 µM [falling, full curve, poor fit]",–
CC(C)(C)c1nc2c(C#N)c(-c3ccc(Cl)cc3)ccn2n1,"18.4 µM [rising, single point]",–
Cc1ccc(NC(=O)CSc2nnc(Cc3csc(C)n3)o2)cc1,"0.103 µM [falling, full curve, poor fit]",–
COc1ccc(NC(=O)c2nc3ccccc3s2)cc1,"16.4 µM [falling, partial curve]",–
Cn1nc(-c2ccc(NCCO)c([N+](=O)[O-])c2)c2ccccc2c1=O,"31.6 µM [rising, single point]",–

# Two neighbouring records out of the list so far, for reference:
SMILES,AC50 [1],AC50 [2]
O=c1[nH]c2c(c3c1CCCC3)CCCC2,"23.1 µM [rising, single point]",–
CC1(C)Cc2c(c(N3CCCC3)nc3sc(C(=O)Nc4ccccc4)c(N)c23)CO1,"14.1 µM [falling, partial curve, poor fit]",–
